These are yes or no findings as the source states them, for the method shown. Binding seen in cells or lysates may run through a third protein. Some binding calls cover weakened binding; strength is not graded here. For part of these data: Sequences can lack the tags named with a protein.

The chains behind the UniProt entries cited, without tags or fusion partners. Where a name states a change or a piece, a line headed by the entry shows the natural chain unless it says otherwise.
UniProt Q3SWW9: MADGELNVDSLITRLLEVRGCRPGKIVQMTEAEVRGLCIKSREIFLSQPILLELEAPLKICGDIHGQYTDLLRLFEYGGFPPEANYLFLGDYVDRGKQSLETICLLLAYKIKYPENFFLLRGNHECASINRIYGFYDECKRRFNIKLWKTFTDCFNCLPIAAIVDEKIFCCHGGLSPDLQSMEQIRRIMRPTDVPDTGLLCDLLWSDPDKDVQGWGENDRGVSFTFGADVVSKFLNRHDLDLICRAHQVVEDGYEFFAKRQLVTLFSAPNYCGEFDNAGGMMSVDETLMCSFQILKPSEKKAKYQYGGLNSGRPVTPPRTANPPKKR
UniProt P62140: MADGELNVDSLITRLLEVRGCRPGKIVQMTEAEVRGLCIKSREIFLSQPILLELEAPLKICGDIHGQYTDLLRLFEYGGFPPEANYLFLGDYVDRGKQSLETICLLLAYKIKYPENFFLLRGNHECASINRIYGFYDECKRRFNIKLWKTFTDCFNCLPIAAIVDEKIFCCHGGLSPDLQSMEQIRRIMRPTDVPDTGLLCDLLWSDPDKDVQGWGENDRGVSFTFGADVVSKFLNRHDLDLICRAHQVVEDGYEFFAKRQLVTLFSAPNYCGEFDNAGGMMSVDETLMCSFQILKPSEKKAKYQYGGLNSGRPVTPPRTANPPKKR

In publication PMC3560227 one finds binding data, which are given here for two substances.

The target of experiment [1] is T1, TIMAP (TGF-β inhibited membrane-associated protein), endogenous in BPAEC (bovine (endogenous in BPAEC)) (UniProt Q95N27).
T1 sequence: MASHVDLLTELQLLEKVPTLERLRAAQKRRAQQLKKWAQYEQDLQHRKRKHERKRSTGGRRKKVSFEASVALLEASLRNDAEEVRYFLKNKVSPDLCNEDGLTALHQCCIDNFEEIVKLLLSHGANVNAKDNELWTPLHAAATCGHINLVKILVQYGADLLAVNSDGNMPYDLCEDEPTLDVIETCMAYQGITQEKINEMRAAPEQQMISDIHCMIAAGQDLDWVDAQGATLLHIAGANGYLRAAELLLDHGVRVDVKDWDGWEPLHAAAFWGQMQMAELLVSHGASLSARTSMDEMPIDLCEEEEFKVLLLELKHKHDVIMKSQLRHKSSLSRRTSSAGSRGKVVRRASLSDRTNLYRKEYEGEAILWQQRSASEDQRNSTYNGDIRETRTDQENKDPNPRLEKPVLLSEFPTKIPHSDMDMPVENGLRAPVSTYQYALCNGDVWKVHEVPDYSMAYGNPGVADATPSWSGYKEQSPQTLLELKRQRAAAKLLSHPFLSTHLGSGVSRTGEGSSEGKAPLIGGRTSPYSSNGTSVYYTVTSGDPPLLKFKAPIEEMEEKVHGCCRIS
The experiment is described as follows: co-IP; endogenous RACK1 or TIMAP immunoprecipitated from BPAEC lysate (20 mM Tris HCl pH 7.4, 150 mM NaCl, 2 mM EDTA, 2 mM sodium vanadate, 1% Nonidet P-40), protein G Sepharose, Western blot; in Figure 3B cells untreated or treated with forskolin or PMA. (In general: Immunoblotting shows a protein as a band on a membrane.)

Experiment [2] has as its target T2, GFP-TIMAP wt (wild type TIMAP/pEGFP) (not stated (NM_015568 is a human entry, from memory)) (UniProt Q96T49).
T2 sequence: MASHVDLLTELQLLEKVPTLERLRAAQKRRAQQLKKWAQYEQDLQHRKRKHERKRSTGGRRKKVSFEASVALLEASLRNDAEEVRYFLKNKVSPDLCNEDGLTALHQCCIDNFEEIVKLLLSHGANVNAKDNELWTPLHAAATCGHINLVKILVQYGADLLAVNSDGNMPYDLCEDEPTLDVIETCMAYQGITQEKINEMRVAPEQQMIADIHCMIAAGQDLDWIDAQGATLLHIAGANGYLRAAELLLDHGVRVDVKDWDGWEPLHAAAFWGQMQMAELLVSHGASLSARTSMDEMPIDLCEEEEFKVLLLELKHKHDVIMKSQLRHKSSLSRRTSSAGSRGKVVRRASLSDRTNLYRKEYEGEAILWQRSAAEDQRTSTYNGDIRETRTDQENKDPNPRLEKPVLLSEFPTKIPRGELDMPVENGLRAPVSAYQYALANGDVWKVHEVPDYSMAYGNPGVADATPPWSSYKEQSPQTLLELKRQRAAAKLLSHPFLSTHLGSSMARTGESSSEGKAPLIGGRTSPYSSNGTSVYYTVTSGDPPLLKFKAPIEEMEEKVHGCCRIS
Nature of the experiment: co-IP; GFP or endogenous RACK1 immunoprecipitated from lysate of HeLa cells transfected with GFP-TIMAP wt; probed for RACK1, GFP and PP1cδ.

Experiment [3] addresses T3, GFP-TIMAP ΔPP1c (truncated TIMAP/pEGFP) (not stated (NM_015568 is a human entry, from memory)) (UniProt Q96T49).
T3 sequence: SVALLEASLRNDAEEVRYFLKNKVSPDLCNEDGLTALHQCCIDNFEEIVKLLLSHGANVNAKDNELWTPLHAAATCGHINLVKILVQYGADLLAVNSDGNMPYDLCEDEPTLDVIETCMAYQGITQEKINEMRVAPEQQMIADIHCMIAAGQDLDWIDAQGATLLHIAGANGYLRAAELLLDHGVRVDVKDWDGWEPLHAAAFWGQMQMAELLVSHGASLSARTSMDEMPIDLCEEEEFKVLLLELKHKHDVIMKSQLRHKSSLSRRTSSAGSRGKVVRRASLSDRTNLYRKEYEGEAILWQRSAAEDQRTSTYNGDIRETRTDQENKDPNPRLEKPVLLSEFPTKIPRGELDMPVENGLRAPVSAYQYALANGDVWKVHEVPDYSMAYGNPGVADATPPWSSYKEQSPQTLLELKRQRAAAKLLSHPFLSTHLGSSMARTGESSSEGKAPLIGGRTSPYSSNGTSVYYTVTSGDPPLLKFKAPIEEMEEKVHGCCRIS
Nature of the experiment: co-IP; GFP or endogenous RACK1 immunoprecipitated from lysate of HeLa cells transfected with empty pEGFP or with GFP-TIMAP ΔPP1c; probed for RACK1, GFP and PP1cδ.

As for “PP1cδ (protein phosphatase 1 catalytic subunit δ), endogenous in BPAEC (from UniProt Q3SWW9 1-327) (enzyme)”, the binding result in experiment [1] was “binds”.

With “PP1cδ, endogenous in human cells (HeLa) (from UniProt P62140 1-327) (enzyme)”, the binding entry is given as “binds” in experiment [2] and “no binding” in experiment [3].
